Source: PubChem BioAssay AID1224830 (NIAID, 2016)

- Assay: 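Host factors that control LPS-induced TNF expression in human macrophages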 (primary screen)
- Cells: human THP-1 monocytic leukaemia cells, TNF dual-luciferase reporter clone, PMA-differentiated to macrophage-like cells
- Reagent: siRNA pool against human genes, 50 nM
- Timing: LPS for 4 h, given about 3 days after siRNA transfection
- Conditions: bacterial LPS (TLR4 ligand), 10 ng/ml
- Measured: 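TNF firefly reporter luminescence divided by renilla, normalised to the plate median, then turned into a robust z-score for each replicate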
- Reading the numbers: TNF reporter robust z-score: higher = stronger TNF reporter response to LPS
- Active means: 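a well is active when its z-score exceeds 2.8 or falls below -1.5; control wells carry no call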
The deposit covers about 18,000 reagents; shown is a part drawn at random. About 2,900 of them (16%) were called active. 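Calls are made per well; low scores hint the gene aids the LPS response, high scores that it dampens it.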 Repeated entries: four replicate wells of each siRNA pool.

{"Target gene": "STAT6 (signal transducer and activator of transcription 6)", "TNF reporter robust z-score": 1.19, "call": "inactive"}
{"Target gene": "STAT6 (signal transducer and activator of transcription 6)", "TNF reporter robust z-score": 1.14, "call": "inactive"}
{"Target gene": "STAT6 (signal transducer and activator of transcription 6)", "TNF reporter robust z-score": 1.06, "call": "inactive"}
{"Target gene": "STAT6 (signal transducer and activator of transcription 6)", "TNF reporter robust z-score": 0.58, "call": "inactive"}
{"Target gene": "C1orf146 (chromosome 1 open reading frame 146)", "TNF reporter robust z-score": -1.04, "call": "inactive"}
{"Target gene": "C1orf146 (chromosome 1 open reading frame 146)", "TNF reporter robust z-score": -1.12, "call": "inactive"}
{"Target gene": "C1orf146 (chromosome 1 open reading frame 146)", "TNF reporter robust z-score": -0.8, "call": "inactive"}
{"Target gene": "C1orf146 (chromosome 1 open reading frame 146)", "TNF reporter robust z-score": -0.87, "call": "inactive"}
{"Target gene": "CHORDC1 (cysteine and histidine rich domain containing 1)", "TNF reporter robust z-score": 0.51, "call": "inactive"}
{"Target gene": "CHORDC1 (cysteine and histidine rich domain containing 1)", "TNF reporter robust z-score": 0.77, "call": "inactive"}
{"Target gene": "CHORDC1 (cysteine and histidine rich domain containing 1)", "TNF reporter robust z-score": -0.68, "call": "inactive"}
{"Target gene": "CHORDC1 (cysteine and histidine rich domain containing 1)", "TNF reporter robust z-score": -1.05, "call": "inactive"}
{"Target gene": "SLC38A9", "TNF reporter robust z-score": -0.1, "call": "inactive"}
{"Target gene": "SLC38A9", "TNF reporter robust z-score": 0.1, "call": "inactive"}
{"Target gene": "SLC38A9", "TNF reporter robust z-score": 0.58, "call": "inactive"}
{"Target gene": "SLC38A9", "TNF reporter robust z-score": 0.96, "call": "inactive"}
{"Target gene": "BAZ1A (bromodomain adjacent to zinc finger domain 1A)", "TNF reporter robust z-score": -0.78, "call": "inactive"}
{"Target gene": "BAZ1A (bromodomain adjacent to zinc finger domain 1A)", "TNF reporter robust z-score": -1.07, "call": "inactive"}
{"Target gene": "BAZ1A (bromodomain adjacent to zinc finger domain 1A)", "TNF reporter robust z-score": -1.39, "call": "inactive"}
{"Target gene": "BAZ1A (bromodomain adjacent to zinc finger domain 1A)", "TNF reporter robust z-score": -0.76, "call": "inactive"}
{"Target gene": "EXOSC3 (exosome component 3)", "TNF reporter robust z-score": -1.52, "call": "active"}
{"Target gene": "EXOSC3 (exosome component 3)", "TNF reporter robust z-score": -0.82, "call": "inactive"}
{"Target gene": "EXOSC3 (exosome component 3)", "TNF reporter robust z-score": -0.6, "call": "inactive"}
{"Target gene": "EXOSC3 (exosome component 3)", "TNF reporter robust z-score": -0.17, "call": "inactive"}
{"Target gene": "HEMK1", "TNF reporter robust z-score": -0.1, "call": "inactive"}
{"Target gene": "HEMK1", "TNF reporter robust z-score": -0.32, "call": "inactive"}
{"Target gene": "HEMK1", "TNF reporter robust z-score": -0.36, "call": "inactive"}
{"Target gene": "HEMK1", "TNF reporter robust z-score": 0.3, "call": "inactive"}
{"Target gene": "SPOCD1 (SPOC domain containing 1)", "TNF reporter robust z-score": 0.93, "call": "inactive"}
{"Target gene": "SPOCD1 (SPOC domain containing 1)", "TNF reporter robust z-score": -0.29, "call": "inactive"}
{"Target gene": "SPOCD1 (SPOC domain containing 1)", "TNF reporter robust z-score": -0.94, "call": "inactive"}
{"Target gene": "SPOCD1 (SPOC domain containing 1)", "TNF reporter robust z-score": -0.81, "call": "inactive"}
{"Target gene": "WDR70 (WD repeat domain 70)", "TNF reporter robust z-score": 1.02, "call": "inactive"}
{"Target gene": "WDR70 (WD repeat domain 70)", "TNF reporter robust z-score": -0.45, "call": "inactive"}
{"Target gene": "WDR70 (WD repeat domain 70)", "TNF reporter robust z-score": -0.89, "call": "inactive"}
{"Target gene": "WDR70 (WD repeat domain 70)", "TNF reporter robust z-score": 0, "call": "inactive"}
{"Target gene": "GPT2 (glutamic--pyruvic transaminase 2)", "TNF reporter robust z-score": 0.68, "call": "inactive"}
{"Target gene": "GPT2 (glutamic--pyruvic transaminase 2)", "TNF reporter robust z-score": 0.04, "call": "inactive"}
{"Target gene": "GPT2 (glutamic--pyruvic transaminase 2)", "TNF reporter robust z-score": 0.11, "call": "inactive"}
{"Target gene": "GPT2 (glutamic--pyruvic transaminase 2)", "TNF reporter robust z-score": 2.35, "call": "inactive"}
{"Target gene": "ZNF646 (zinc finger protein 646)", "TNF reporter robust z-score": -0.36, "call": "inactive"}
{"Target gene": "ZNF646 (zinc finger protein 646)", "TNF reporter robust z-score": -0.11, "call": "inactive"}
{"Target gene": "ZNF646 (zinc finger protein 646)", "TNF reporter robust z-score": -0.51, "call": "inactive"}
{"Target gene": "ZNF646 (zinc finger protein 646)", "TNF reporter robust z-score": 0.14, "call": "inactive"}
{"Target gene": "AP3S1 (adaptor related protein complex 3 subunit sigma 1)", "TNF reporter robust z-score": -0.02, "call": "inactive"}
{"Target gene": "AP3S1 (adaptor related protein complex 3 subunit sigma 1)", "TNF reporter robust z-score": -0.19, "call": "inactive"}
{"Target gene": "AP3S1 (adaptor related protein complex 3 subunit sigma 1)", "TNF reporter robust z-score": 0.76, "call": "inactive"}
{"Target gene": "AP3S1 (adaptor related protein complex 3 subunit sigma 1)", "TNF reporter robust z-score": -0.1, "call": "inactive"}
{"Target gene": "SLC35B1", "TNF reporter robust z-score": -0.4, "call": "inactive"}
{"Target gene": "SLC35B1", "TNF reporter robust z-score": -0.43, "call": "inactive"}
{"Target gene": "SLC35B1", "TNF reporter robust z-score": 0.19, "call": "inactive"}
{"Target gene": "SLC35B1", "TNF reporter robust z-score": 1.37, "call": "inactive"}
{"Target gene": "CAMK4 (calcium/calmodulin dependent protein kinase IV)", "TNF reporter robust z-score": -0.33, "call": "inactive"}
{"Target gene": "CAMK4 (calcium/calmodulin dependent protein kinase IV)", "TNF reporter robust z-score": 0.33, "call": "inactive"}
{"Target gene": "CAMK4 (calcium/calmodulin dependent protein kinase IV)", "TNF reporter robust z-score": -0.58, "call": "inactive"}
{"Target gene": "CAMK4 (calcium/calmodulin dependent protein kinase IV)", "TNF reporter robust z-score": 2.13, "call": "inactive"}
{"Target gene": "RALBP1 (ralA binding protein 1)", "TNF reporter robust z-score": -0.21, "call": "inactive"}
{"Target gene": "RALBP1 (ralA binding protein 1)", "TNF reporter robust z-score": -0.1, "call": "inactive"}
{"Target gene": "RALBP1 (ralA binding protein 1)", "TNF reporter robust z-score": -0.49, "call": "inactive"}
{"Target gene": "RALBP1 (ralA binding protein 1)", "TNF reporter robust z-score": 0.22, "call": "inactive"}

Sorted by “TNF reporter robust z-score” (high to low): some entries from above
{"Target gene": "GPT2 (glutamic--pyruvic transaminase 2)", "TNF reporter robust z-score": 2.35, "call": "inactive"}
{"Target gene": "ZNF646 (zinc finger protein 646)", "TNF reporter robust z-score": 0.14, "call": "inactive"}
{"Target gene": "GPT2 (glutamic--pyruvic transaminase 2)", "TNF reporter robust z-score": 0.11, "call": "inactive"}
{"Target gene": "GPT2 (glutamic--pyruvic transaminase 2)", "TNF reporter robust z-score": 0.04, "call": "inactive"}
{"Target gene": "AP3S1 (adaptor related protein complex 3 subunit sigma 1)", "TNF reporter robust z-score": -0.02, "call": "inactive"}
{"Target gene": "ZNF646 (zinc finger protein 646)", "TNF reporter robust z-score": -0.11, "call": "inactive"}
{"Target gene": "ZNF646 (zinc finger protein 646)", "TNF reporter robust z-score": -0.36, "call": "inactive"}
{"Target gene": "ZNF646 (zinc finger protein 646)", "TNF reporter robust z-score": -0.51, "call": "inactive"}
